{"source": "PubChem BioAssay AID504834", "about": "(National Center for Advancing Translational Sciences (NCATS), 2011)", "note": "About 22,000 (6.9%) of roughly 320,000 compounds were called active. The inconclusive results got no clear call from the source; some entries with a clear call stand among them for comparison. Calls come from the whole dose curve; as a rule, active = well fitted inhibition curve with a large enough effect; inconclusive = small, poorly fitted or top-dose-only effect, or another doubt; inactive = no such curve, though single readings can be large or run the other way. A potency beside an inconclusive call is a rough fit, not a confirmed value. % is set by controls: 0 for no effect and ±100 for the full control effect; potency is the fitted concentration of half-maximal effect.", "data": [{"assay": "Primary qHTS for delayed death inhibitors of the malarial parasite plastid, 96 hour incubation", "conditions": "P. falciparum luciferase reporter growth; series mostly up to 28.7 µM; activity change, negative = inhibition: at the top concentration", "procedure,_shortened": "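96 h incubation, 37 C, 5% CO2, of luciferase-reporter P. falciparum-infected RBCs (2% hematocrit, 0.05% parasitemia final) with test compounds; endpoint luminescence.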", "values": [{"smiles": "CN(C)c1ccc(C#Cc2ccc3cc(CCO)oc(=O)c3c2)cc1", "Potency": "inconclusive: 16.5 µM [inhibitor, single point]"}, {"smiles": "CCCCn1c(N)c(N(CCC(C)C)C(=O)COC(=O)c2ccco2)c(=O)[nH]c1=O", "activity change, negative = inhibition": "inactive: -12.1%"}, {"smiles": "CCCCN(c1ccccc1)c1ncnc2nc[nH]c12", "Potency": "inconclusive: 11.7 µM [inhibitor, single point]"}, {"smiles": "CC1CCN(CCCC(=O)c2ccc(F)cc2)CC1", "Potency": "inconclusive: 0.0953 µM [inhibitor, partial curve, poor fit]"}, {"smiles": "COc1ccc(C2/C=C\\CN(S(=O)(=O)c3cccs3)CC(=O)N2Cc2ccc(F)cc2)cc1", "note": "(stereo not drawn)", "Potency": "active: 10.4 µM"}, {"smiles": "CC1CCCN(C(=O)c2ccc3c(c2)OCCO3)C1", "note": "(stereo not drawn)", "Potency": "inconclusive: 18.5 µM [inhibitor, single point]"}, {"smiles": "CCOc1cccc(/C=N/NC(=O)C2CCCC2)c1O", "activity change, negative = inhibition": "inactive: 6.7%"}, {"smiles": "CCOC(=O)N1CCN(C(=O)c2cnn3c(C(F)F)cc(-c4ccc(C)cc4)nc23)CC1", "activity change, negative = inhibition": "inactive: 31.4%"}, {"smiles": "CC1=NN(c2ccccc2)C(=O)/C1=C\\c1cc(C)n(-c2ccccc2)c1C", "activity change, negative = inhibition": "inactive: -0.56%"}, {"smiles": "COc1cc(NS(=O)(=O)c2ccc(NC(=O)/C=C/c3ccc([N+](=O)[O-])cc3)cc2)ncn1", "Potency": "inconclusive: 18.5 µM [inhibitor, single point]"}, {"smiles": "Cc1ccc(S(=O)(=O)N2CCN(CCc3ccccc3)CC2)c(C)c1", "activity change, negative = inhibition": "inactive: -3.5%"}, {"smiles": "Cc1ncc(CN2CCCC(C(=O)c3ccc(C(C)(C)C)cc3)C2)s1", "note": "(stereo not drawn)", "Potency": "inconclusive: 0.147 µM [inhibitor, full curve, poor fit]"}, {"smiles": "C/C(=N\\NC(=O)CNc1cccc2ccccc12)c1ccccc1", "Potency": "inconclusive: 18.5 µM [inhibitor, single point]"}, {"smiles": "CCn1c(=O)c(C(=O)CC#N)c(N)n(Cc2ccccc2)c1=O", "Potency": "inconclusive: 18.5 µM [inhibitor, partial curve, poor fit]"}, {"smiles": "Cc1ccc2[nH]c(=O)c(CN(Cc3ccccc3)Cc3nnnn3C3CCCC3)cc2c1", "Potency": "inconclusive: 18.5 µM [inhibitor, single point]"}, {"smiles": "Cc1ccc(S(=O)(=O)NCc2ccc(C(=O)N3CCCC3)cc2)cc1", "Potency": "inconclusive: 23.3 µM [inhibitor, partial curve, poor fit]"}, {"smiles": "CC(c1ccco1)N(C(=O)COc1ccccc1[N+](=O)[O-])c1ccccn1", "note": "(stereo not drawn)", "Potency": "inconclusive: 0.415 µM [inhibitor, full curve, poor fit]"}, {"smiles": "CCN1CCN(S(=O)(=O)Cc2ccccc2Cl)CC1", "Potency": "inconclusive: 10.4 µM [inhibitor, partial curve, poor fit]"}, {"smiles": "COCCN(C(=O)c1ccc(OCC(C)C)cc1)c1c(N)n(Cc2ccccc2)c(=O)[nH]c1=O", "activity change, negative = inhibition": "inactive: 0.0745%"}, {"smiles": "CCn1cc(C(=O)NC2CCCc3c2cnn3-c2cccc(C)c2C)cn1", "note": "(stereo not drawn)", "Potency": "inconclusive: 11.7 µM [inhibitor, single point]"}, {"smiles": "CCC(C)NS(=O)(=O)c1ccc(NC(=O)C(Sc2ccccc2)c2ccccc2)cc1", "note": "(stereo not drawn)", "activity change, negative = inhibition": "inactive: -6.87%"}, {"smiles": "Cc1ccc(N(C)S(=O)(=O)c2csc(C(N)=O)c2)cc1C", "Potency": "inconclusive: 10.4 µM [inhibitor, single point]"}, {"smiles": "Cc1[nH][nH]c(=O)c1N=Nc1ccc(Cl)cc1", "Potency": "inconclusive: 18.5 µM [inhibitor, single point]"}, {"smiles": "CC(C)(C)NC[C@H](O)COc1cccc2c1CCC(=O)N2", "activity change, negative = inhibition": "inactive: -4.94% [at 12.8 µM]"}, {"smiles": "CCOc1cc([N+](=O)[O-])c2nc(N)sc2c1", "activity change, negative = inhibition": "inactive: 16.9%"}, {"smiles": "O=C(COc1ccc(OCc2ccccc2)cc1)NN=C1CCCC1", "Potency": "inconclusive: 18.5 µM [inhibitor, single point]"}, {"smiles": "Nc1ccc(S(N)(=O)=O)cc1", "Potency": "inconclusive: 4.78 µM [inhibitor, partial curve]"}, {"smiles": "COc1ccc2nc(SCC(=O)NC3(C#N)CCCCC3)[nH]c2c1", "activity change, negative = inhibition": "inactive: -19.6%"}, {"smiles": "Nc1c(C(=O)CSc2nnc(Cc3ccccc3)o2)c(=O)[nH]c(=O)n1C1CC1", "Potency": "inconclusive: 10.4 µM [inhibitor, single point]"}, {"smiles": "COc1ccc(-c2ccnc3nc(/N=C/N(C)C)nn23)cc1", "Potency": "inconclusive: 0.0294 µM [inhibitor, full curve, poor fit]"}, {"smiles": "O=C(NCc1ccco1)c1ccccc1NS(=O)(=O)c1cccs1", "Potency": "inconclusive: 18.5 µM [inhibitor, single point]"}, {"smiles": "COC(=O)c1sccc1NC(=O)Nc1cccc(C)c1C", "Potency": "active: 4.15 µM"}, {"smiles": "CSc1nncc(-c2ccc(F)cc2)n1", "Potency": "inconclusive: 5.86 µM [inhibitor, partial curve]"}, {"smiles": "CNC(=O)CSc1nc2nn(-c3ccccc3)c(=O)c-2c2n1CCCCC2", "Potency": "inconclusive: 1.31 µM [inhibitor, full curve]"}, {"smiles": "Cc1ccc(N2C(=O)NC(=O)/C(=C\\c3cc(C)n(-c4sc5c(c4C#N)CCCC5)c3C)C2=O)cc1", "Potency": "inconclusive: 9.28 µM [inhibitor, single point]"}, {"smiles": "COCCCN(Cc1ccco1)C(=O)c1cc2c(s1)-c1ccc(Cl)cc1S(=O)(=O)C2", "Potency": "inconclusive: 8.28 µM [inhibitor, partial curve, poor fit]"}, {"smiles": "Cc1ccc(C)c(NC(=S)N2CCCC2)c1", "activity change, negative = inhibition": "inactive: 2.15%"}, {"smiles": "O=C(OCC#Cc1c(COC(=O)c2ccccc2)nnn1Cc1ccccc1)c1ccccc1", "activity change, negative = inhibition": "inactive: 31%"}, {"smiles": "CC1(C)Cc2c(sc(NC(=O)COc3ccc(Cl)cc3)c2C(N)=O)C(C)(C)N1", "Potency": "inconclusive: 14.7 µM [inhibitor, partial curve, poor fit]"}, {"smiles": "CCOC(=O)c1ccc(N=C2S/C(=C\\c3cc(C)n(-c4cccnc4)c3C)C(=O)N2C)cc1", "Potency": "inconclusive: 1.85 µM [inhibitor, full curve, poor fit]"}, {"smiles": "CCC(C(=O)NCc1ccc(C)o1)n1nc(C)c2c(C)n(-c3ccccc3)nc2c1=O", "note": "(stereo not drawn)", "Potency": "inconclusive: 1.65 µM [inhibitor, partial curve, poor fit]"}, {"smiles": "CCOc1ccc(-n2c(C)c(C(C)=O)c(C(C)=O)c2C)cc1", "activity change, negative = inhibition": "inactive: -16.1%"}, {"smiles": "CC(=O)Nc1ccccc1NC(=O)C/C(C)=N/NC(=O)C(=O)N1CCCCC1", "Potency": "inconclusive: 13.1 µM [inhibitor, single point]"}, {"smiles": "C=CCN(C(=O)CSc1nc2c(sc3ccccc32)c(=O)n1CCN(CC)CC)c1ccccc1", "activity change, negative = inhibition": "inactive: 0.168%"}, {"smiles": "O=C1c2cccc(OCC(=O)N3CCCc4ccccc43)c2CCN1Cc1ccccc1", "Potency": "inconclusive: 10.4 µM [inhibitor, single point]"}, {"smiles": "CCN1CCC[C@H]1CNC(=O)c1cc(S(N)(=O)=O)ccc1OC", "activity change, negative = inhibition": "inactive: 12.9%"}, {"smiles": "COc1ccc(N2CCCn3c2nc2c3c(=O)n(Cc3ccc(C)cc3)c(=O)n2C)c(OC)c1", "activity change, negative = inhibition": "inactive: 0%"}, {"smiles": "Cc1ccc2nc(SCC(=O)Nc3ccc(F)cc3F)nc(=O)n2c1", "activity change, negative = inhibition": "inactive: 79.7%"}, {"smiles": "CCOC(=O)c1cc(-c2ccccc2)n(CCC(=O)N2CCN(c3ccccc3OC)CC2)c1C", "Potency": "inconclusive: 18.5 µM [inhibitor, single point]"}, {"smiles": "COc1ccc(N2CCOCC2)c(NC(=O)c2cccs2)c1", "activity change, negative = inhibition": "inactive: 6.84%"}, {"smiles": "Cc1c(C(=O)NCc2ccccc2CN2CCCC2)oc2ccccc12", "Potency": "inconclusive: 6.57 µM [inhibitor, partial curve]"}, {"smiles": "COCCCNC(=S)NCCNc1nc2c(C)c(C)ccc2cc1C#N", "activity change, negative = inhibition": "inactive: 17.7%"}, {"smiles": "CC1=C(C(=O)Nc2ccc(C)cc2C)C(c2cccs2)NC(=S)N1", "note": "(stereo not drawn)", "Potency": "inconclusive: 10.4 µM [inhibitor, single point]"}, {"smiles": "O=S(=O)(c1cc(Cl)ccc1Cl)n1ccnc1", "activity change, negative = inhibition": "inactive: 26.8%"}, {"smiles": "CSc1ccc(CNCC2CCCO2)cc1", "note": "(stereo not drawn)", "activity change, negative = inhibition": "inactive: 6.78%"}, {"smiles": "CC(C)c1ccc(/C=N/NC(=O)C2CCCC2)cc1", "Potency": "inconclusive: 13.1 µM [inhibitor, single point]"}, {"smiles": "CCOc1ccc(N(CC(=O)NCC2CCCO2)S(=O)(=O)c2ccc(C)cc2)cc1", "note": "(stereo not drawn)", "activity change, negative = inhibition": "inactive: 17.6%"}, {"smiles": "COc1cc(CNCc2c[nH]c3ccccc23)cc(OC)c1", "Potency": "inconclusive: 11.7 µM [inhibitor, single point]"}, {"smiles": "CCSc1nnc(-c2ccccc2NC(=O)CC)c(=O)[nH]1", "Potency": "active: 4.65 µM"}, {"smiles": "CCOC(=O)C1(Cc2ccccc2C)CCCN(Cc2ccc(NC(C)=O)cc2)C1", "note": "(stereo not drawn)", "Potency": "inconclusive: 18.5 µM [inhibitor, single point]"}, {"smiles": "CC[N+]1(CC(O)COC2CC(C)CC(C)(C)C2)CCOCC1", "note": "(stereo not drawn)", "Potency": "inconclusive: 18.5 µM [inhibitor, single point]"}, {"smiles": "COc1ccc(CN2C(=O)C(CC(C)C)Nc3ncnc(N4CCOCC4)c32)cc1", "note": "(stereo not drawn)", "Potency": "inconclusive: 18.5 µM [inhibitor, single point]"}, {"smiles": "CCN(CC)S(=O)(=O)c1ccc2nnn(O)c2c1", "activity change, negative = inhibition": "inactive: 25.6%"}, {"smiles": "CCSc1nnc(NC(=O)CSc2nnc(CNC(=O)c3ccc(OC)c(OC)c3)o2)s1", "activity change, negative = inhibition": "inactive: -25.7%"}, {"smiles": "CCC(CCC(=O)Nc1ccc(S(N)(=O)=O)cc1)C(=O)O", "note": "(stereo not drawn)", "activity change, negative = inhibition": "inactive: 4.61%"}, {"smiles": "COc1cc(/C=N/NC(=O)COc2ccccc2[N+](=O)[O-])ccc1OC(=O)c1ccco1", "Potency": "inconclusive: 4.15 µM [inhibitor, single point]"}, {"smiles": "CC(C(=O)Nc1ccc(F)c(F)c1F)N(C)CCOc1ccccc1", "note": "(stereo not drawn)", "Potency": "inconclusive: 2.33 µM [inhibitor, partial curve, poor fit]"}, {"smiles": "N#Cc1cccc(NC(=O)CSc2sc3c(O)cc(=O)[nH]c3c2C#N)c1", "activity change, negative = inhibition": "inactive: 6.1%"}, {"smiles": "CCC(C)Nc1nc(N)c([N+](=O)[O-])c(NC2CCCCC2)n1", "note": "(stereo not drawn)", "Potency": "inconclusive: 18.5 µM [inhibitor, single point]"}, {"smiles": "Cc1cccc(NC(=O)CSCC(=O)Nc2ccccc2N2CCCC2)c1", "activity change, negative = inhibition": "inactive: 0%"}, {"smiles": "Cc1ccc([N+](=O)[O-])c(OCCN2CCNCC2)c1", "Potency": "active: 2.33 µM"}, {"smiles": "COc1ccccc1Nc1nc(N)nc(CSC(=S)N2CCCCC2C)n1", "note": "(stereo not drawn)", "Potency": "inconclusive: 10.4 µM [inhibitor, single point]"}, {"smiles": "CCCn1c(O)c(N=Nc2ccc3ccccc3n2)c2ccccc21", "activity change, negative = inhibition": "inactive: 94.3%"}]}]}
